Results published in article PMC4760308.

How the values were obtained:
[1] = molecular target: HA-HDAC1 (Xenopus); assay: co-IP; 293T cell lysate overexpressing 6MT-ASCL1 or HA-HDAC1 constructs; precipitation with anti-HA, western blot with anti-MT
[2] = molecular target: HDAC1 of the tag-swap co-IP (Xenopus); assay: co-IP; tag-swap experiment; precipitation with anti-Myc antibodies (Fig. S6F)
[3] = molecular target: HA-ASCL1-ΔC (not stated (human or Xenopus cDNA cloned)) (UniProt P50553); assay: co-IP; anti-HA immunocomplexes of HA-ASCL1-ΔC, western blots with anti-Myc-tag or anti-HA antibodies (Fig. 7C,E)

B1: 6MT-ASCL1-WT (protein, UniProt P50553 1-236)
chain: MESSAKMESGGAGQQPQPQPQQPFLPPAACFFATAAAAAAAAAAAAAQSAQQQQQQQQQQQQAPQLRPAADGQPSGGGHKSAPKQVKRQRSSSPELMRCKRRLNFSGFGYSLPQQQPAAVARRNERERNRVKLVNLGFATLREHVPNGAANKKMSKVETLRSAVEYIRALQQLLDEHDAVSAAFQAGVLSPTISPNYSNDLNSMAGSPVSSYSSDEGSYDPLSPEEQELLDFTNWF
binding [1]: binds

B2: ASCL1-WT of the tag-swap co-IP (protein, UniProt P50553 1-236)
chain: MESSAKMESGGAGQQPQPQPQQPFLPPAACFFATAAAAAAAAAAAAAQSAQQQQQQQQQQQQAPQLRPAADGQPSGGGHKSAPKQVKRQRSSSPELMRCKRRLNFSGFGYSLPQQQPAAVARRNERERNRVKLVNLGFATLREHVPNGAANKKMSKVETLRSAVEYIRALQQLLDEHDAVSAAFQAGVLSPTISPNYSNDLNSMAGSPVSSYSSDEGSYDPLSPEEQELLDFTNWF
binding [2]: binds

B3: MT-VegT (protein, UniProt P87377 1-455)
chain: MRNCCRECGLSAGHLEPEASSNCASDVKSSPDMDSVSSQDSLYLPNTVGASLEDQDLWSQFHQEGTEMIITKSGRRMFPQCKIRLFGLHPYAKYMLLVDFVPLDNFRYKWNKNQWEAAGKAEPHPPCRTYVHPDSPAPGAHWMKDPICFQKLKLTNNTLDQQGHIILHSMHRYKPRFHVVQSDDMYNSPWGLVQVFSFPETEFTSVTAYQNEKITKLKINHNPFAKGFREQERSHKRDDVLKILQQSPSKRQKRKKWEDSPEADISDFPKAICVKEESIMDPAGVYQNWVSDHEANQGLTPHSPESEGANQEQQVPTSSSNFYNKSHYRRSSQHLSSPFELGEPSSRRLTPDIATVPDSDPDSLAVFHVIPTQNSAPERTCSMNFSMEAPMKQPLRGAMYSPYGADQWLVPAQGQYRPVGYTAYPTDLSTQGAVAHPHSAMSDWSQYSLFPYSCW
binding [3]: binds

These are yes or no findings as the source states them, for the method shown. In cells and extracts the contact can be indirect. Binding can be weak; no strength is given. For part of these data: Sequences can lack the tags named with a protein.
